We go through one molecule from patent US20050266004A1 (published 2005).

Results are given in words; binding and its absence hold for the method and conditions named. Some results given as binding are weak or reduced against the parent protein; the word gives no strength.

This experiment has as its target T1, recombinant human lymphotoxin alpha (rhuLTα) (human) (UniProt P01374).
T1 sequence (looked up): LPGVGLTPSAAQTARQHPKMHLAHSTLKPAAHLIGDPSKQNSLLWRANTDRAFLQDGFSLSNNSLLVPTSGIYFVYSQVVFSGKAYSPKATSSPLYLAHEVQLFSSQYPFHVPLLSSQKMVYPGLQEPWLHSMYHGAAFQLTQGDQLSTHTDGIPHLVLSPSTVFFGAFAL
Nature of the experiment: EIA, rhuLTα coated on plates.

B1: murine anti-human LTα Mab 4 (antibody, V domains shown)
VH: PGLVAPAQSLSITCTVSGFSLTSYGVHWVRQPPGKGLEWLGVIWAGGNTNYNSPLMSRLRIIKDNSKSQVFLKMNSLQADDTAMYYCVSHDVNNPFGYWGQGTLVTVSA
VL: DIQMTQTTSSLSASLGDRVTISCRASQDITNYLNWYQQKPDGTVKLLIYYTSRLHSGVPSRFSGSGSGTDYSLTISNLEQEDIATYFCQQGNTLPYTFGGGTRLEIK
notes: Tested as the murine IgG1 kappa hybridoma Mab; also called Mab number 4
For B1, the binding entry is “binds”.
